Results on one substance are retold here after PMC3197488.

Chains of the proteins cited; added tags and fusions are not shown. Lines headed by an entry give the natural chain unless they say otherwise; changes in a name come on top.
UniProt P0AGE0: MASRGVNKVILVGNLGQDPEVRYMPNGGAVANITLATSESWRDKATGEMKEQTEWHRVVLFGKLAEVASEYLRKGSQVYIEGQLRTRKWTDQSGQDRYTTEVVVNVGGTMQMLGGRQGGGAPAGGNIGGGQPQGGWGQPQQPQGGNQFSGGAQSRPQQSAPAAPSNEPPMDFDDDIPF
UniProt P28905: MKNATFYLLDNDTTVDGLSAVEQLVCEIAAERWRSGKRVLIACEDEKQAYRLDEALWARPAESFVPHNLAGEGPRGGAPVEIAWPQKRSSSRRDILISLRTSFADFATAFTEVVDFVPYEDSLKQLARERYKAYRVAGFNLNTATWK

The target of test [1] is E. coli single-stranded DNA-binding protein, wild type (E. coli) (UniProt P0AGE0). Description: AUC; sedimentation velocity, c(s) distributions of 2.2 µM SSB without or with a nine-fold (EcoSSB+Gly) or seven-fold (EcoSSB wild-type) molar excess of χψ; high salt buffer, 50000 rpm, 20°C, 280 nm; both purified.
The target is the same in test [2]. Put plainly: AUC; sedimentation velocity; χψ titrated to 0.35 μM cognate SSB without poly(dT), low salt buffer (5 mM NaCl, 5 mM KPi pH 7.4, 0.87 M glycerol, 0.5 mM DTT), 50000 rpm, 20°C, 230 nm; both purified.

Results are given in words; binding and its absence hold for the method and conditions named. Some results given as binding are weak or reduced against the parent protein; the word gives no strength.

As to “E. coli χψ complex (from UniProt P28905 1-147; P28632 1-137)”, the binding entry in test [1] is on record as “binds”; in test [2], “binds weakly”.
